Laboratory results from doi:10.1101/2023.01.07.523072.
Results are given in words; binding and its absence hold for the method and conditions named. Binding can be weak; no strength is given. For part of these data: Binding seen in cells or lysates may run through a third protein. For part of these data: Tags and fused reporters may be left off the sequences shown.

B1: ubiquitinated Toc33FL (a.a. 1-297) (receptor, UniProt O23680 1-297)
chain: MGSLVREWVGFQQFPAATQEKLIEFFGKLKQKDMNSMTVLVLGKGGVGKSSTVNSLIGEQVVRVSPFQAEGLRPVMVSRTMGGFTINIIDTPGLVEAGYVNHQALELIKGFLVNRTIDVLLYVDRLDVYRVDELDKQVVIAITQTFGKEIWCKTLLVLTHAQFSPPDELSYETFSSKRSDSLLKTIRAGSKMRKQEFEDSAIAVVYAENSGRCSKNDKDEKALPNGEAWIPNLVKAITDVATNQRKAIHVDKKMVDGSYSDDKGKKLIPLIIGAQYLIVKMIQGAIRNDIKTSGKPL
modifications: ubiquitinated (in vitro, by SP1flex); sites not stated, in the receptor domain
B2: full length Toc33 (Toc33FL, a.a. 1-297), non-ubiquitinated (receptor, UniProt O23680 1-297)
chain: B1 chain
B3: Toc33 without the C-terminus (Toc33NC, a.a. 1-251), non-ubiquitinated (domain or fragment, UniProt O23680 1-251)
chain: MGSLVREWVGFQQFPAATQEKLIEFFGKLKQKDMNSMTVLVLGKGGVGKSSTVNSLIGEQVVRVSPFQAEGLRPVMVSRTMGGFTINIIDTPGLVEAGYVNHQALELIKGFLVNRTIDVLLYVDRLDVYRVDELDKQVVIAITQTFGKEIWCKTLLVLTHAQFSPPDELSYETFSSKRSDSLLKTIRAGSKMRKQEFEDSAIAVVYAENSGRCSKNDKDEKALPNGEAWIPNLVKAITDVATNQRKAIHVD
B4: ubiquitinated Toc33NC (a.a. 1-251) (domain or fragment, UniProt O23680 1-251)
chain: B3 chain
modifications: ubiquitinated (in vitro, by SP1flex); sites not stated
B5: FLAG-tagged Toc33 (receptor, UniProt O23680 1-297)
chain: B1 chain
B6: FLAG-tagged RPN10 (protein, UniProt P55034 1-386)
chain: MVLEATMICIDNSEWMRNGDYSPSRLQAQTEAVNLLCGAKTQSNPENTVGILTMAGKGVRVLTTPTSDLGKILACMHGLDVGGEINLTAAIQIAQLALKHRQNKNQRQRIIVFAGSPIKYEKKALEIVGKRLKKNSVSLDIVNFGEDDDEEKPQKLEALLTAVNNNDGSHIVHVPSGANALSDVLLSTPVFTGDEGASGYVSAAAAAAAAGGDFDFGVDPNIDPELALALRVSMEEERARQEAAAKKAADEAGQKDKDGDTASASQETVARTTDKNAEPMDEDSALLDQAIAMSVGDVNMSEAADEDQDLALALQMSMSGEESSEATGAGNNLLGNQAFISSVLSSLPGVDPNDPAVKELLASLPDESKRTEEEESSSKKGEDEKK
B7: FLAG-tagged Tom20-4 (receptor, UniProt P82805 1-187)
chain: MDMQNENERLMVFEHARKVAEATYVKNPLDAENLTRWAGALLELSQFQTEPKQMILEAILKLGEALVIDPKKHDALWLIGNAHLSFGFLSSDQTEASDNFEKASQFFQLAVEEQPESELYRKSLTLASKAPELHTGGTAGPSSNSAKTMKQKKTSEFKYDVFGWVILASYVVAWISFANSQTPVSRQ
B8: FLAG-tagged Tom20-2 (receptor, UniProt P82873 1-210)
chain: MEFSTADFERLIMFEHARKNSEAQYKNDPLDSENLLKWGGALLELSQFQPIPEAKLMLNDAISKLEEALTINPGKHQALWCIANAYTAHAFYVHDPEEAKEHFDKATEYFQRAENEDPGNDTYRKSLDSSLKAPELHMQFMNQGMGQQILGGGGGGGGGGMASSNVSQSSKKKKRNTEFTYDVCGWIILACGIVAWVGMAKSLGPPPPAR
B9: FLAG-tagged PAP2 (protein, UniProt Q9LMG7 20-656)
chain: ADSKATISISPNALNRSGDSVVIQWSGVDSPSDLDWLGLYSPPESPNDHFIGYKFLNESSTWKDGFGSISLPLTNLRSNYTFRIFRWSESEIDPKHKDHDQNPLPGTKHLLAESEQLTFGSGVGMPEQIHLSFTNMVNTMRVMFVAGDGEERFVRYGESKDLLGNSAAARGMRYEREHMCDSPANSTIGWRDPGWIFDTVMKNLNDGVRYYYQVGSDSKGWSEIHSYIARDVTAEETVAFMFGDMGCATPYTTFIRTQDESISTVKWILRDIEALGDKPAMISHIGDISYARGYSWVWDEFFAQVEPIASTVPYHVCIGNHEYDFSTQPWKPDWAASIYGNDGGGECGVPYSLKFNMPGNSSESTGMKAPPTRNLYYSYDMGTVHFVYISTETNFLKGGSQYEFIKRDLESVDRKKTPFVVVQGHRPMYTTSNEVRDTMIRQKMVEHLEPLFVKNNVTLALWGHVHRYERFCPISNNTCGTQWQGNPVHLVIGMAGQDWQPIWQPRPNHPDLPIFPQPEQSMYRTGEFGYTRLVANKEKLTVSFVGNHDGEVHDTVEMLASGVVISGSKESTKIPNLKTVPASATLMGKSESNALWYAKGAGLMVVGVLLGFIIGFFTRGKKSSSGNRWIPVKNEET
B10: FLAG-tagged Toc34 (receptor, UniProt Q38906 1-313)
chain: MAALQTLREWIGIQQFPPATQSKLLEILGKYKEEDVSSLTVLVMGKGGVGKSSTVNSVIGEKAAAVSTFQSEGLRPTLVSRTRSGFTLNIIDTPGLIEGGYVNDQAINIIKRFLLNMTIDVLLYVDRLDVYRVDDLDRQVVGAITDAFGKEIWKKSALVLTHAQFSPPDGLNYNHFVSKRSNALLKVIQTGAQLKKQDLQGFSIPVILVENSGRCHKNESDEKILPCGTSWIPNLFNKITEISFNGNKAIHVDKKLVEGPNPNERGKKLIPLMFAFQYLLVMKPLVRAIKSDVSRESKPAWELRDSGLASRRS
B11: FLAG-tagged SP1 (enzyme, UniProt Q8L7N4 1-343)
chain: MIPWGGVTCCLSAAALYLLGRSSGRDAEVLETVTRVNQLKELAQLLELDSKILPFIVAVSGRVGSETPIKCEHSGIRGVIVEETAEQHFLKHNETGSWVQDSALMLSMSKEVPWFLDDGTSRVHVMGARGATGFALTVGSEVFEESGRSLVRGTLDYLQGLKMLGVKRIERVLPTGIPLTIVGEAVKDDIGEFRIQKPDRGPFYVSSKSLDQLISNLGKWSRLYKYASMGFTVLGVFLITKHVIDSVLERRRRRQLQKRVLDAAAKRAELESEGSNGTRESISDSTKKEDAVPDLCVICLEQEYNAVFVPCGHMCCCTACSSHLTSCPLCRRRIDLAVKTYRH
B12: FLAG-tagged RPN6 (protein, UniProt Q9LP45 1-419)
chain: MVSYRATTETISLALEANSSEAITILYQVLEDPSSSPEAIRIKEQAITNLCDRLTEEKRGEDLRKLLTKLRPFFSLIPKAKTAKIVRGIIDAVAKIPGTTDLQITLCKEMVEWTRAEKRTFLRQRVEARLAALLMENKEYVEALALLSTLVKEVRRLDDKLLLVDIDLLESKLHFSLRNLPKAKAALTAARTAANAIYVPPAQQGTIDLQSGILHAEEKDYKTGYSYFFEAFESFNALGDPRAVFSLKYMLLCKIMVSQADDVAGIISSKAGLQYVGPDLDAMKAVADAHSKRSLKLFENALRDYKAQLEDDPIVHRHLSSLYDTLLEQNLCRLIEPFSRVEIAHIAELIGLPLDHVEKKLSQMILDKKFAGTLDQGAGCLIIFEDPKADAIYSATLETIANMGKVVDSLYVRSAKIMS

biological target: GST-TTOP (Arabidopsis thaliana) (UniProt F4K1H0); experiment: pull-down

Row | Binder | binding
1 | B1 | binds
2 | B2 | binds
3 | B3 | no binding
4 | B4 | no binding

biological target: GFP-TTOP (Arabidopsis thaliana); experiment: co-IP

Row | Binder | binding
5 | B5 | binds
6 | B6 | binds
7 | B7 | binds
8 | B8 | binds
9 | B9 | binds
10 | B10 | binds
11 | B11 | binds
12 | B12 | binds
